Reference: article PMC12040169 (PLOS Biology, 2025)

Assay: in vitro
Settings: human, hela cells, % viability

Structure (SMILES) | viability at 28.5 h, 10 µM
COc1ccc2cc(C(C)C(=O)O)ccc2c1 (centres unmarked) [CBK015987] | 91%
CN1C2CC(OC(=O)C(CO)c3ccccc3)CC1C1OC12 (centres unmarked) [CBK261507C] | 97.7%
